# The list shows a part of the results. Shown are side measurements of this screen, not its main read-out; they come without a call. Compounds called inactive in the main read-out are mostly missing here. Words in brackets tell the shape of the fitted curve; partial curves, single points and poor fits give uncertain potencies.
# Assay: qHTS Assay for Lipid Storage Modulators in Drosophila S3 Cells;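 on cell number change: cells counted by Cell Tracker Red CMTPX staining in the red channel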
# Conditions: BODIPY lipid droplet fluorescence, 18-24 h; for cell number change: measured here: cell count max response, cells fed with added oleic acid
# In short: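 Drosophila S3 cells loaded with oleic acid (400 uM, as added) and compounds at several concentrations; lipid droplets imaged by 488-nm laser-scanning cytometry, 500–530 nm intensity and object ratio to cell channel. Percent activity normalized to 20 uM Triacsin C.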
# [1] = measured here: lipid fluorescence (Fed channel) AC50, cells fed with added oleic acid
# [2] = measured here: cell number channel AC50, cells fed with added oleic acid
compound,measurement,setting,value
C#CCN(CC=C)C(=O)c1cccc(OC2CCN(S(C)(=O)=O)CC2)c1,cell number change,,-3.3%
same,AC50,[1],"23.1 µM [rising, single point]"
O=C(Nn1c(Cc2cccs2)nc2ccccc2c1=O)c1ccc(F)c(F)c1,cell number change,,-1.21%
same,AC50,[1],"0.651 µM [rising, partial curve, poor fit]"
CCCN(Cc1cc2cccc(C)c2[nH]c1=O)S(C)(=O)=O,AC50,[2],"2.31 µM [falling, partial curve, poor fit]"
same,AC50,[1],"0.651 µM [rising, single point]"
N#Cc1cccc(NC(=O)c2nc(-c3ccccc3)n(-c3ccccc3)n2)c1,cell number change,,-7.16%
same,AC50,[1],"0.0326 µM [rising, full curve, poor fit]"
COc1ccc(Br)cc1/C=N/Nc1ccccn1,cell number change,,14.7%
Cc1ccc(S(=O)(=O)NCc2ccncc2)cc1,cell number change,,43.7%
same,AC50,[2],"1.84 µM [rising, full curve]"
same,AC50,[1],"9.2 µM [falling, partial curve]"
O=C1CCN(Cc2ccccc2)S(=O)(=O)c2c(F)cc(F)cc21,cell number change,,-12.8%
CCCN1CCN(CCCNC(=O)c2cc3c(s2)-c2c(C)cccc2OC3)CC1,AC50,[1],"6.51 µM [rising, partial curve, poor fit]"
O=[N+]([O-])c1ccc(/C=C/C2=NN(c3ccccc3)C(c3ccco3)C2)o1 (configuration not stated),cell number change,,-96.9%
same,AC50,[1],"25.9 µM [falling, partial curve]"
CCOC(=O)CCCCC(=O)c1[nH]c(=O)[nH]c1C[n+]1ccccc1,cell number change,,-32.8%
same,AC50,[2],"2.31 µM [falling, partial curve, poor fit]"
same,AC50,[1],"2.06 µM [falling, full curve]"
COc1cc(C(=O)NCc2nc(C)cs2)ccc1OC1CCN(C(C)=O)CC1,cell number change,,4.62%
CCC(=O)NC(=S)Nc1ccc2oc(-c3ccc(OC)cc3)nc2c1,cell number change,,32.4%
same,AC50,[2],"29.1 µM [rising, single point]"
same,AC50,[1],"29.1 µM [rising, single point]"
CC(C)N1CCc2c(sc(NC(=O)CCS(=O)(=O)c3ccccc3)c2C(N)=O)C1,cell number change,,12.7%
same,AC50,[1],"15.8 µM [rising, single point]"
O=Cc1ccc(O)cc1O,cell number change,,11.6%
Cc1ccc(C)c(OCCCC(C)(C)C(=O)O)c1,cell number change,,2.46%
same,AC50,[1],"6.51 µM [falling, single point]"
O=C(c1ccc(Br)o1)N1N=C(c2ccc(Cl)cc2)CC1c1ccco1 (configuration not stated),cell number change,,78.4%
same,AC50,[2],"23.1 µM [rising, single point]"
same,AC50,[1],"6.51 µM [rising, partial curve]"
O=C(CCc1nc2ccccc2c(=O)[nH]1)NCc1ccco1,cell number change,,-14.3%
same,AC50,[1],"0.00461 µM [falling, full curve, poor fit]"
CCc1ccc(N2CC(C(=O)Nc3nc4ccc(S(C)(=O)=O)cc4s3)CC2=O)cc1 (configuration not stated),AC50,[1],"3.98 µM [falling, partial curve]"
COc1ccc(C2CC(=O)c3cnc(NC(=O)c4ccccc4)nc3C2)c(OC)c1 (configuration not stated),cell number change,,-10.8%
same,AC50,[1],"0.116 µM [rising, full curve]"
Cc1ccc(S(=O)(=O)CCC(=O)c2ccc(F)cc2)cc1,cell number change,,-0.244%
C=C(C)C1CC=C(C)/C(=N/NC(=O)c2ccccc2[N+](=O)[O-])C1 (configuration not stated),cell number change,,21.1%
Cc1ccc(S(=O)(=O)N2CCN(CC(=O)NC3CCCc4ccccc43)CC2)cc1C (configuration not stated),cell number change,,33.4%
same,AC50,[2],"3.26 µM [rising, partial curve, poor fit]"
same,AC50,[1],"0.116 µM [rising, full curve, poor fit]"
COc1nc(N/N=C/c2ccccc2F)nc(N2CCCCC2)n1,AC50,[1],"0.58 µM [falling, single point]"
Oc1ccccc1-c1nc(NC2CCCC2)c2ccccc2n1,cell number change,,1.11%
Cc1cc(C)nc(Nc2n[nH]c(COc3ccc(Cl)cc3)n2)n1,cell number change,,1.71%
same,AC50,[2],"0.0731 µM [rising, full curve, poor fit]"
same,AC50,[1],"0.0651 µM [rising, full curve, poor fit]"
Nc1c(C(=O)NC2CCCC2)c2nc3ccccc3nc2n1N,cell number change,,-38.5%
same,AC50,[2],"11.6 µM [falling, partial curve, poor fit]"
same,AC50,[1],"0.259 µM [rising, full curve, poor fit]"
COc1ccc(Cc2nnc(NC(=O)C3CC(=O)N(c4ccccc4C)C3)s2)cc1OC (configuration not stated),cell number change,,3.23%
CCOc1ccc(NC(=S)N2CCN(S(C)(=O)=O)CC2)cc1,cell number change,,14%
COc1ccccc1NS(=O)(=O)c1ccc(O)c(C(=O)OCC(=O)N2c3ccccc3CC2C)c1 (configuration not stated),cell number change,,33.7%
same,AC50,[1],"16.4 µM [rising, partial curve, poor fit]"
Cc1ccc(Nc2nc(-c3ccc(O)c(O)c3)cs2)nc1,cell number change,,-24.5%
same,AC50,[1],"29.1 µM [falling, single point]"
Cc1ccc(NC(=O)c2ccccc2NS(=O)(=O)c2ccc(F)cc2)cc1S(=O)(=O)N1CCCCC1,cell number change,,-31.2%
same,AC50,[2],"32.6 µM [falling, single point]"
CCOCc1nnc(NC(=O)CS(=O)(=O)c2ccc(C)cc2)s1,cell number change,,-2.86%
same,AC50,[1],"6.51 µM [rising, single point]"
O=C1C(=O)N(c2ccccn2)C(c2ccc(F)cc2)/C1=C(/O)c1ccc(Br)cc1 (configuration not stated),cell number change,,11.7%
same,AC50,[1],"29.1 µM [falling, single point]"
O=c1[nH]c(/C=C/c2cccnc2)c([N+](=O)[O-])c(=O)[nH]1,cell number change,,-54%
same,AC50,[2],"20.6 µM [falling, partial curve]"
same,AC50,[1],"20.6 µM [falling, partial curve, poor fit]"
O=C(CCCN1C(=O)C(c2ccccc2)Oc2cccnc21)NCc1ccc(F)cc1 (configuration not stated),cell number change,,-23.6%
Cc1ccc(S(=O)(=O)N2CCOCC2)cc1C(=O)OC(C)C(=O)NC1CCCC1 (configuration not stated),cell number change,,14.4%
same,AC50,[1],"3.26 µM [rising, single point]"
COc1ccccc1N1CCN(/N=C/C=C\c2ccccc2[N+](=O)[O-])CC1,cell number change,,-49.9%
same,AC50,[2],"18.4 µM [falling, partial curve, poor fit]"
O=C(CNC(=O)c1ccccc1)OCC(=O)N1N=C(c2ccc(Cl)cc2)CC1c1ccco1 (configuration not stated),cell number change,,-10.3%
same,AC50,[2],"0.00461 µM [rising, full curve, poor fit]"
same,AC50,[1],"0.116 µM [rising, full curve, poor fit]"

# 15 entries from above, tab-delimited:
compound	measurement	setting	value
C#CCN(CC=C)C(=O)c1cccc(OC2CCN(S(C)(=O)=O)CC2)c1	AC50	[1]	23.1 µM [rising, single point]
O=C1CCN(Cc2ccccc2)S(=O)(=O)c2c(F)cc(F)cc21	cell number change		-12.8%
CCCN1CCN(CCCNC(=O)c2cc3c(s2)-c2c(C)cccc2OC3)CC1	AC50	[1]	6.51 µM [rising, partial curve, poor fit]
O=[N+]([O-])c1ccc(/C=C/C2=NN(c3ccccc3)C(c3ccco3)C2)o1 (configuration not stated)	cell number change		-96.9%
CCOC(=O)CCCCC(=O)c1[nH]c(=O)[nH]c1C[n+]1ccccc1	cell number change		-32.8%
same	AC50	[2]	2.31 µM [falling, partial curve, poor fit]
COc1cc(C(=O)NCc2nc(C)cs2)ccc1OC1CCN(C(C)=O)CC1	cell number change		4.62%
Cc1ccc(C)c(OCCCC(C)(C)C(=O)O)c1	AC50	[1]	6.51 µM [falling, single point]
Nc1c(C(=O)NC2CCCC2)c2nc3ccccc3nc2n1N	cell number change		-38.5%
CCOc1ccc(NC(=S)N2CCN(S(C)(=O)=O)CC2)cc1	cell number change		14%
Cc1ccc(Nc2nc(-c3ccc(O)c(O)c3)cs2)nc1	cell number change		-24.5%
O=C(CCCN1C(=O)C(c2ccccc2)Oc2cccnc21)NCc1ccc(F)cc1 (configuration not stated)	cell number change		-23.6%
Cc1ccc(S(=O)(=O)N2CCOCC2)cc1C(=O)OC(C)C(=O)NC1CCCC1 (configuration not stated)	AC50	[1]	3.26 µM [rising, single point]
COc1ccccc1N1CCN(/N=C/C=C\c2ccccc2[N+](=O)[O-])CC1	cell number change		-49.9%
O=C(CNC(=O)c1ccccc1)OCC(=O)N1N=C(c2ccc(Cl)cc2)CC1c1ccco1 (configuration not stated)	AC50	[2]	0.00461 µM [rising, full curve, poor fit]

# From PubChem BioAssay AID2685 (National Center for Advancing Translational Sciences (NCATS), 2010)
